Test results from publication PMC8205225, “Structural Basis of Metallo-β-lactamase Inhibition by N-Sulfamoylpyrrole-2-carboxylates” (ACS Infectious Diseases, 2021).

Legend:
E. coli S117 blaNDM-1 = assay: antimicrobial susceptibility testing (MIC) with meropenem, CLSI, strain S117; assay type: cell-based; conditions: Escherichia coli, S117BLANDM1, read-out: MIC of meropenem (MEM) alone
[1] = tested on: K. pneumoniae IR43 blaNDM-1; assay: antimicrobial susceptibility testing (MIC) with meropenem, CLSI, strain IR43; conditions: Klebsiella pneumoniae, IR43BLANDM1, read-out: MIC of meropenem (MEM) alone
E. coli IR57 blaNDM-1 = assay: antimicrobial susceptibility testing (MIC) with meropenem, CLSI, strain IR57; conditions: Escherichia coli, IR57BLANDM1, read-out: MIC of meropenem (MEM) alone
[2] = tested on: K. pneumoniae B68-1 blaNDM-1; assay: antimicrobial susceptibility testing (MIC) with meropenem, CLSI, strain B68-1; conditions: Klebsiella pneumoniae, B681BLANDM1, read-out: MIC of meropenem (MEM) alone

C[C@@H](O)[C@H]1C(=O)N2C(C(=O)O)=C(S[C@@H]3CN[C@H](C(=O)N(C)C)C3)[C@H](C)[C@H]12 [MEM, meropenem] was tested. Which MIC (E. coli S117 blaNDM-1) did it give?
Its MIC is 256 µg/mL.

And the MIC [1]?
Its MIC is 128 µg/mL.

And the MIC (E. coli IR57 blaNDM-1)?
The MIC was 64 µg/mL.

And the MIC [2]?
Its MIC is 64 µg/mL.
